Measurements from publication doi:10.1101/2021.01.08.425994.
No constants are given. Whether binding was seen depends on the method and setting. Binding seen in cells or lysates may run through a third protein. Some binding calls cover weakened binding; strength is not graded here.

By UniProt entry, the sequences of proteins in these tests, tags left out. Where a name states a change or a piece, a line headed by the entry shows the natural chain unless it says otherwise.
UniProt O08785: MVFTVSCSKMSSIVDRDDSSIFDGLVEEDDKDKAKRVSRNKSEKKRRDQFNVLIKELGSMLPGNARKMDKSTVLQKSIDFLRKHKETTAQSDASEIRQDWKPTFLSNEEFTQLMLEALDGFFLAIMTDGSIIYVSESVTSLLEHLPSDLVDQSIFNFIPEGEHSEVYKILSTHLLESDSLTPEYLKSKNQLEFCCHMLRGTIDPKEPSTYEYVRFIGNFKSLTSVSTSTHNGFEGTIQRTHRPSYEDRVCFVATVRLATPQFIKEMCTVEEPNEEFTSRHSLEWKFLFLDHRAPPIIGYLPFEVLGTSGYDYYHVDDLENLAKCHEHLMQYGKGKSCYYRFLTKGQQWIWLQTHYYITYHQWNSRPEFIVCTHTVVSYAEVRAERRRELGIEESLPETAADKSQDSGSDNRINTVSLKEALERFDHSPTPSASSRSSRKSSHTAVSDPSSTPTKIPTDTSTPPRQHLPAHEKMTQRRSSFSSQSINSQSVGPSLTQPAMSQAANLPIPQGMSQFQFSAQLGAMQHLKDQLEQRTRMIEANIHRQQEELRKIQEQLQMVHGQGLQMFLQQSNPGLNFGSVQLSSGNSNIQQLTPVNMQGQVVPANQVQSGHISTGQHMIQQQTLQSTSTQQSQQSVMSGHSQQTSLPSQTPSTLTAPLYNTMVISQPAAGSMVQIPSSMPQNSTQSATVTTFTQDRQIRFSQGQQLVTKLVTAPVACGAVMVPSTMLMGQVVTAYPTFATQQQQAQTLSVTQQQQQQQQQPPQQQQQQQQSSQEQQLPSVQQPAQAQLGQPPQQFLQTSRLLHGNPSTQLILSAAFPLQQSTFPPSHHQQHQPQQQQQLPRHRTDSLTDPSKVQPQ
UniProt Q16526: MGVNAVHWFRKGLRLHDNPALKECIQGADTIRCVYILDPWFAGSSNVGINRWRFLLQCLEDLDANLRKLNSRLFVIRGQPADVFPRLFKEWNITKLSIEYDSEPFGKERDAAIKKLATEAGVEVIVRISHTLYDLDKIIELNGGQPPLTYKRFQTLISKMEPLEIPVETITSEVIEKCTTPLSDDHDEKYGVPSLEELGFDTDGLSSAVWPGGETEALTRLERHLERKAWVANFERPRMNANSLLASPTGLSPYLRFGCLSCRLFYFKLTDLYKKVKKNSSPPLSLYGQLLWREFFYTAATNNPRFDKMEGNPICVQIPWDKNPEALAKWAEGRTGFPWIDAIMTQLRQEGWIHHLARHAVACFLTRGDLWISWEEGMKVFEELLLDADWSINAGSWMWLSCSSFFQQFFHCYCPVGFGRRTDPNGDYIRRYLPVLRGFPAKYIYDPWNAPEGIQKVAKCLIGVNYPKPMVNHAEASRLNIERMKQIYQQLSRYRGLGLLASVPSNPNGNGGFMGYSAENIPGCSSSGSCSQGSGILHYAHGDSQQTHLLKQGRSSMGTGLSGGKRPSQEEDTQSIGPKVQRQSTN

Target: CLOCK:BMAL1 heterodimer (overexpressed) (not stated | mouse) (UniProt O08785)
Assay: co-IP

human CRY1 D307H (from UniProt Q16526 1-586)
binding: binds weakly
